# The supplement of paper PMC6411743
# ± gives the standard deviation of the averaged measurements. The list shows a part of the results.
# Assays:
# Test in all cases: NP40-soluble protein abundance relative to vehicle (solubility fold change) (ratio); higher = more soluble protein in presence of GTP
# [1] = molecular target: T1, UniProt Q96AX2 and related entries
# T1 sequence (whole entry): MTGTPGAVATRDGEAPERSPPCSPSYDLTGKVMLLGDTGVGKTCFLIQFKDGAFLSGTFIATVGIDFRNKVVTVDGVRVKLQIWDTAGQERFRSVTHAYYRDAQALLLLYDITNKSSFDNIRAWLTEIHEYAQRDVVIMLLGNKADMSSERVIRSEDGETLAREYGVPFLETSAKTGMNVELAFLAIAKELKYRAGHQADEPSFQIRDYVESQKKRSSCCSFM
# Outline: (§1)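 Each value is a fold change relative to the detergent-processed vehicle, calculated per replicate from vsn-normalised intensities. Jurkat crude lysate received eight concentrations (0.1 to 10 mM) for 10 min at room temperature and 3 min at 37 °C, then was solubilised in 0.8% NP40 with benzonase (60 min, 4 °C). The ultracentrifuged supernatant was TMT-labelled and run by LC-MS/MS in three independent experiments.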
# [2] = molecular target: T2, UniProt Q96BZ9 and related entries
# T2 sequence (whole entry): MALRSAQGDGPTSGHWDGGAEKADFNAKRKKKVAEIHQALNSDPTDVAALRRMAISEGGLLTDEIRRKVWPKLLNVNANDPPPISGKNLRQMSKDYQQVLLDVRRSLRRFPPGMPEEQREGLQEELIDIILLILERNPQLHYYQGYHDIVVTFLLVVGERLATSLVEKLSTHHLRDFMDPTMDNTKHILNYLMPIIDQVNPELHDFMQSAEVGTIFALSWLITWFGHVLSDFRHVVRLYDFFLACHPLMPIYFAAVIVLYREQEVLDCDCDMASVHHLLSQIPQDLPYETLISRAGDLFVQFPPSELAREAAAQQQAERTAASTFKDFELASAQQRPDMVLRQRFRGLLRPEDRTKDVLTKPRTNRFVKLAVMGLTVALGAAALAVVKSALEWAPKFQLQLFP
# Outline: as §1
# [3] = molecular target: T3, UniProt Q96F46 and related entries
# T3 sequence (whole entry): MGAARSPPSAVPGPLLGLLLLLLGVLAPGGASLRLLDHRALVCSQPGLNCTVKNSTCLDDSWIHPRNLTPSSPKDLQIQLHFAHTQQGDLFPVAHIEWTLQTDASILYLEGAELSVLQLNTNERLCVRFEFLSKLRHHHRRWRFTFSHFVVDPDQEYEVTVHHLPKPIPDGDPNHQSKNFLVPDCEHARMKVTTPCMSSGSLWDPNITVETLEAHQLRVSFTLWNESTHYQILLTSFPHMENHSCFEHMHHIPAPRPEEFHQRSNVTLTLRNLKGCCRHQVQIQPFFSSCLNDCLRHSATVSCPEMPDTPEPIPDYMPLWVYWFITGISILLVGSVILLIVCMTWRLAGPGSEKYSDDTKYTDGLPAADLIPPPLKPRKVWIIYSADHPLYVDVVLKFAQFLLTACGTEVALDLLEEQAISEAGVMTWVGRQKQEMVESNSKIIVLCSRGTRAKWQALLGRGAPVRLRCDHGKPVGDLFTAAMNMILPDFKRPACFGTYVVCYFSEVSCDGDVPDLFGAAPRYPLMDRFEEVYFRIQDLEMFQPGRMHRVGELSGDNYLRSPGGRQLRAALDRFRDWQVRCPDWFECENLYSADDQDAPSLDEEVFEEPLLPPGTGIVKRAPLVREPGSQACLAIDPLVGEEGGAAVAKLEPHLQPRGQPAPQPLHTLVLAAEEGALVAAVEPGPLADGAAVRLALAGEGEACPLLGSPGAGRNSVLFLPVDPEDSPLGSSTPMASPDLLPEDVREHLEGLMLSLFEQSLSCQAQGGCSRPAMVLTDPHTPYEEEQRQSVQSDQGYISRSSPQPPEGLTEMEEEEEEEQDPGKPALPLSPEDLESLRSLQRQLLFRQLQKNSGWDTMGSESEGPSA
# Outline: as §1
# [4] = molecular target: T4, UniProt Q96FZ7 and related entries
# T4 sequence (whole entry): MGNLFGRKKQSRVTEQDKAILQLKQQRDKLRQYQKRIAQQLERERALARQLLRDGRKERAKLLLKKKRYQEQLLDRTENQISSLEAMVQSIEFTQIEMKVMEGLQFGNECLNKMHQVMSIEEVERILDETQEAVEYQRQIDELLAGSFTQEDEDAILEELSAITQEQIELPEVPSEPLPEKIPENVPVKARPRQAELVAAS
# Outline: as §1
# [5] = molecular target: T5, UniProt Q96GS4
# T5 sequence (whole entry): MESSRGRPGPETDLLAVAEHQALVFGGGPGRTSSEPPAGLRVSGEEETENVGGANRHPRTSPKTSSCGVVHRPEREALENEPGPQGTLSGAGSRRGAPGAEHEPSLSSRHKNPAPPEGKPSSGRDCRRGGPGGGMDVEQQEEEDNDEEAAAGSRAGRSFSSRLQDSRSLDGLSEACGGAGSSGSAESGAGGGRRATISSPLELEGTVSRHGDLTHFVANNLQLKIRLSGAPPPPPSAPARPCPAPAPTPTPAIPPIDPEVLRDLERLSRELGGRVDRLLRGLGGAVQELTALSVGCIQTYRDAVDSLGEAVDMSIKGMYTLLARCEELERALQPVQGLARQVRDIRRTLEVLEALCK
# Outline: as §1
# [6] = molecular target: T6, WASF1 (UniProt Q92558)
# T6 sequence (whole entry): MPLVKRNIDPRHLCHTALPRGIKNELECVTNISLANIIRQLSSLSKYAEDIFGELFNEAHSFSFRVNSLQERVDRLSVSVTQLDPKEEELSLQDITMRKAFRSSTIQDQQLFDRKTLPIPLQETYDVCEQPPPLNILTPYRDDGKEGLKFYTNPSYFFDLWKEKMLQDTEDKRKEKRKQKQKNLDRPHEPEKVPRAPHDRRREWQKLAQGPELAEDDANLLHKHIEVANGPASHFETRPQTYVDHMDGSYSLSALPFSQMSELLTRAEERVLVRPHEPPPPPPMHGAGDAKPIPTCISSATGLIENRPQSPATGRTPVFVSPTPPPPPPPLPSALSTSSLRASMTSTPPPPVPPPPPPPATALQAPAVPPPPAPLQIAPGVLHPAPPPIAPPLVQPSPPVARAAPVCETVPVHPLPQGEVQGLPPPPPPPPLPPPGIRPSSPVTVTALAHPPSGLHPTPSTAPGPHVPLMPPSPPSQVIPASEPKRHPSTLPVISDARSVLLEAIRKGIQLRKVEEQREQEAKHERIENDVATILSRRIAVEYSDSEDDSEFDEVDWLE
# Outline: as §1
smiles,measurement,setting,value
Nc1nc2c(ncn2[C@@H]2O[C@H](COP(=O)(O)OP(=O)(O)OP(=O)(O)O)[C@@H](O)[C@H]2O)c(=O)[nH]1 [guanosine triphosphate],NP40-soluble protein abundance,[1]; concentration: 8mM,0.977 ± 0.15
same,NP40-soluble protein abundance,[1]; concentration: 10mM,0.906 ± 0.15
same,NP40-soluble protein abundance,[2]; concentration: 0.1mM,0.995 ± 0.14
same,NP40-soluble protein abundance,[2]; concentration: 0.5mM,0.959 ± 0.11
same,NP40-soluble protein abundance,[2]; concentration: 1mM,0.984 ± 0.14
same,NP40-soluble protein abundance,[2]; concentration: 2mM,1.01 ± 0.17
same,NP40-soluble protein abundance,[2]; concentration: 4mM,0.97 ± 0.073
same,NP40-soluble protein abundance,[2]; concentration: 6mM,0.966 ± 0.1
same,NP40-soluble protein abundance,[2]; concentration: 8mM,1.08 ± 0.24
same,NP40-soluble protein abundance,[2]; concentration: 10mM,0.999 ± 0.081
same,NP40-soluble protein abundance,[3]; concentration: 0.1mM,1.03 ± 0.093
same,NP40-soluble protein abundance,[3]; concentration: 0.5mM,1.06 ± 0.12
same,NP40-soluble protein abundance,[3]; concentration: 1mM,1.05 ± 0.076
same,NP40-soluble protein abundance,[3]; concentration: 2mM,0.963 ± 0.088
same,NP40-soluble protein abundance,[3]; concentration: 4mM,1.04 ± 0.098
same,NP40-soluble protein abundance,[3]; concentration: 6mM,1.02 ± 0.049
same,NP40-soluble protein abundance,[3]; concentration: 8mM,1 ± 0.013
same,NP40-soluble protein abundance,[3]; concentration: 10mM,1.11 ± 0.097
same,NP40-soluble protein abundance,[4]; concentration: 0.1mM,0.955 ± 0.12
same,NP40-soluble protein abundance,[4]; concentration: 0.5mM,0.871 ± 0.056
same,NP40-soluble protein abundance,[4]; concentration: 1mM,0.993 ± 0.11
same,NP40-soluble protein abundance,[4]; concentration: 2mM,1.06 ± 0.1
same,NP40-soluble protein abundance,[4]; concentration: 4mM,1.03 ± 0.1
same,NP40-soluble protein abundance,[4]; concentration: 6mM,1.03 ± 0.076
same,NP40-soluble protein abundance,[4]; concentration: 8mM,0.885 ± 0.26
same,NP40-soluble protein abundance,[4]; concentration: 10mM,1.15 ± 0.14
same,NP40-soluble protein abundance,[5]; concentration: 0.1mM,0.961 ± 0.069
same,NP40-soluble protein abundance,[5]; concentration: 0.5mM,0.948 ± 0.12
same,NP40-soluble protein abundance,[5]; concentration: 1mM,1.06 ± 0.13
same,NP40-soluble protein abundance,[5]; concentration: 2mM,1.02 ± 0.097
same,NP40-soluble protein abundance,[5]; concentration: 4mM,0.996 ± 0.16
same,NP40-soluble protein abundance,[5]; concentration: 6mM,1.01 ± 0.1
same,NP40-soluble protein abundance,[5]; concentration: 8mM,0.994 ± 0.097
same,NP40-soluble protein abundance,[5]; concentration: 10mM,0.975 ± 0.068
same,NP40-soluble protein abundance,[6]; concentration: 0.1mM,1 ± 0.082
same,NP40-soluble protein abundance,[6]; concentration: 0.5mM,1.02 ± 0.096
same,NP40-soluble protein abundance,[6]; concentration: 1mM,1.06 ± 0.11
same,NP40-soluble protein abundance,[6]; concentration: 2mM,1.04 ± 0.13
same,NP40-soluble protein abundance,[6]; concentration: 4mM,1.03 ± 0.17
same,NP40-soluble protein abundance,[6]; concentration: 6mM,1.05 ± 0.1
same,NP40-soluble protein abundance,[6]; concentration: 8mM,1.11 ± 0.064
same,NP40-soluble protein abundance,[6]; concentration: 10mM,1.07 ± 0.096

# Shown bar-delimited: part of the list above.
smiles | measurement | setting | value
Nc1nc2c(ncn2[C@@H]2O[C@H](COP(=O)(O)OP(=O)(O)OP(=O)(O)O)[C@@H](O)[C@H]2O)c(=O)[nH]1 [guanosine triphosphate] | NP40-soluble protein abundance | [2]; concentration: 2mM | 1.01 ± 0.17
same | NP40-soluble protein abundance | [2]; concentration: 4mM | 0.97 ± 0.073
same | NP40-soluble protein abundance | [2]; concentration: 6mM | 0.966 ± 0.1
